In US20060069083A1, “Pesticidal dibenzo(hetero)azepine derivatives” (priority 2002, published 2006):
Some results were stated once for a whole list of compounds, not compound by compound.

Columns and labels:
Format in all cases: in vivo
[1] = system: Cotton aphid (aphis gossypii); test: Cotton aphid cotyledon-dip test; settings: 300 ppm; mortality counts after 5 days
[2] = system: Green Peach Aphid (myzus persicae); test: Green peach aphid leaf-dip test on pepper plants; settings: 300 ppm; determined after 5 days
[3] = system: Silverleaf whitefly (bemisia argentifolii); test: Silverleaf whitefly cotton cotyledon-dip test; settings: 300 ppm; 3 days after treatment; whitefly adults
[4] = system: Orchid Thrips (dichromothrips corbetti); test: Orchid thrips floral-immersion test; settings: 4 days, adult thrips

SMILES: CSc1ccc2c(c1)C(N1CCN(C)CC1)=Nc1ccccc1S2 [I-A.9]
- mortality in comparison with untreated controls [1]: over 90%
- mortality in comparison with untreated controls [2]: over 90%

SMILES: CCN1CCN(C2=Nc3ccccc3Sc3ccc(SC)cc32)CC1 [I-A.10]
- mortality in comparison with untreated controls [2]: over 90%

SMILES: CN1CCN(C2=Nc3ccccc3Sc3c(Cl)cccc32)CC1 [I-A.27]
- mortality in comparison with untreated controls [2]: over 90%

SMILES: COc1ccc2c(c1)C(N1CCN(C)CC1)=Nc1cc(Cl)ccc1O2 [I-B.3]
- mortality in comparison with untreated controls [1]: over 90%
- mortality in comparison with untreated controls [2]: over 90%

SMILES: CN1CCN(C2=Nc3ccccc3Sc3cccc(Cl)c32)CC1 [I-A.30]
- mortality in comparison with untreated controls [2]: over 90%

SMILES: CCN1CCN(C2=Nc3cc(C(F)(F)F)ccc3Sc3ccc(OC)cc32)CC1 [I-A.26]
- mortality in comparison with untreated controls [1]: over 90%

SMILES: CCOc1ccc2c(c1)Sc1ccc(C(F)(F)F)cc1N=C2N1CCN(C)CC1 [I-A.29]
- mortality in comparison with untreated controls [2]: over 90%

SMILES: CCN1CCN(C2=Nc3cc(SC)ccc3Sc3ccc(OC)cc32)CC1 [I-A.19]
- mortality compared to untreated controls [3]: over 90%

SMILES: Cc1ccc2c(c1)N=C(N1CCN(C)CC1)c1cc(Cl)ccc1O2 [I-B.2]
- mortality compared to untreated controls ([4]; 500 ppm): over 90%
- mortality in comparison with untreated controls [1]: over 90%
- mortality in comparison with untreated controls [2]: over 90%

SMILES: CN1CCN(C2=Nc3ccccc3Sc3ccc(Br)cc32)CC1 [I-A.47]
- mortality in comparison with untreated controls [1]: over 90%

SMILES: CCN1CCN(C2=Nc3ccccc3Sc3ccc(C(F)(F)F)cc32)CC1 [I-A.50]
- mortality compared to untreated controls [3]: over 90%
- mortality in comparison with untreated controls [1]: over 90%
- mortality in comparison with untreated controls [2]: over 90%

SMILES: CSc1ccc2c(c1)C(N1CCN(C)CC1)=Nc1cc(Cl)ccc1S2 [I-A.43]
- mortality compared to untreated controls [3]: over 90%
- mortality in comparison with untreated controls [1]: over 90%
- mortality in comparison with untreated controls [2]: over 90%

SMILES: FC(F)(F)CN1CCN(C2=Nc3ccc(Cl)cc3Oc3ccc(Br)cc32)CC1 [I-B.115]
- mortality in comparison with untreated controls [1]: over 90%

SMILES: CN1CCN(C2=Nc3ccc(F)cc3Oc3ccc(OC(F)(F)F)cc32)CC1 [I-B.116]
- mortality compared to untreated controls [3]: over 90%
- mortality in comparison with untreated controls [2]: over 90%

SMILES: CSc1ccc2c(c1)C(N1CCN(C)CC1)=Nc1cc(Cl)ccc1O2 [I-B.6]
- mortality in comparison with untreated controls [1]: over 90%
- mortality in comparison with untreated controls [2]: over 90%

SMILES: CSc1ccc2c(c1)C(N1CCN(C)CC1)=Nc1ccc(F)cc1O2 [I-B.19]
- mortality in comparison with untreated controls [1]: over 90%
- mortality in comparison with untreated controls [2]: over 90%

SMILES: CN1CCN(C2=Nc3ccccc3Sc3ccc(C(F)(F)F)cc32)CC1 [I-A.48]
- mortality compared to untreated controls [3]: over 90%
- mortality in comparison with untreated controls [1]: over 90%
- mortality in comparison with untreated controls [2]: over 90%

SMILES: CC(=O)Nc1ccc2c(c1)C(N1CCN(C)CC1)=Nc1ccc(F)cc1O2 [I-B.142]
- mortality compared to untreated controls ([4]; 300 ppm): over 90%

SMILES: CC(C)N1CCN(C2=Nc3ccccc3Sc3ccc(C(F)(F)F)cc32)CC1 [I-A.49]
- mortality compared to untreated controls [3]: over 90%
- mortality in comparison with untreated controls [1]: over 90%
- mortality in comparison with untreated controls [2]: over 90%
